{"source": "PubChem BioAssay AID743454 (Peter MacCallum Cancer Centre, 2014)", "aim": "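Genes whose loss kills vorinostat-resistant colon cancer cells under vorinostat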 (primary screen)", "cell system": "human HCT116-VR colon cancer cells, selected for vorinostat resistance", "reagent": "siRNA pool against human genes, 40 nM siRNA pool", "time to read-out": "vorinostat for 24 h, read-out about 72 h after transfection", "treatment": "vorinostat at 2.5 µM final", "read-out": "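Cell viability by CellTiter-Fluor and caspase 3/7 activity by luminescence, each scaled to mock wells per plate, duplicates averaged, then robust z-scored over all plates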", "scale": "viability robust z-score: higher = more viable cells than screen typical; caspase robust z-score: higher = more caspase 3/7 activity than screen typical", "call rule": "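Hits are knock-downs in viability class RV1/RV2 or caspase class CA1/CA2, excluding ones that killed cells in the no-drug cell-count arm; hits then retested with single siRNAs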", "note": "Shown is one part, drawn at random, of about 18,000 deposited reagents. In the full data, 450 (2.5%) were called active. 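Single biological run; no consistent viability z cut-off exists, so the class columns, not z-scores, define the calls.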 A number with no mark means an inactive call."}
{"gene": "PRNP (GeneID 5621)", "viability hit class": "no change", "caspase hit class": "no change", "viability robust z-score": 0.72, "caspase robust z-score": -0.32}
{"gene": "BTG4 (GeneID 54766)", "viability hit class": "no change", "caspase hit class": "no change", "viability robust z-score": -0.23, "caspase robust z-score": 3.58}
{"gene": "LRP5 (GeneID 4041)", "viability hit class": "no change", "caspase hit class": "no change", "viability robust z-score": 0.94, "caspase robust z-score": 1.84}
{"gene": "SLC4A7 (GeneID 9497)", "viability hit class": "no change", "caspase hit class": "no change", "viability robust z-score": -1.12, "caspase robust z-score": -1.29}
{"gene": "ZSWIM9 (GeneID 374920)", "viability hit class": "no change", "caspase hit class": "no change", "viability robust z-score": 1.46, "caspase robust z-score": 1.4}
{"gene": "OR1B1 (GeneID 347169)", "viability hit class": "no change", "caspase hit class": "no change", "viability robust z-score": -2.15, "caspase robust z-score": 3.79}
{"gene": "TEX261 (GeneID 113419)", "viability hit class": "no change", "caspase hit class": "no change", "viability robust z-score": -0.44, "caspase robust z-score": 3.72}
{"gene": "SH3D19 (GeneID 152503)", "viability hit class": "no change", "caspase hit class": "no change", "viability robust z-score": 0.49, "caspase robust z-score": -0.44}
{"gene": "GRAP2 (GeneID 9402)", "viability hit class": "no change", "caspase hit class": "no change", "viability robust z-score": 0.86, "caspase robust z-score": -0.36}
{"gene": "TBC1D21 (GeneID 161514)", "viability hit class": "no change", "caspase hit class": "no change", "viability robust z-score": 0.98, "caspase robust z-score": -0.8}
{"gene": "CYB5A (GeneID 1528)", "viability hit class": "no change", "caspase hit class": "no change", "viability robust z-score": -0.93, "caspase robust z-score": -0.38}
{"gene": "OSBPL11 (GeneID 114885)", "viability hit class": "no change", "caspase hit class": "no change", "viability robust z-score": 0.48, "caspase robust z-score": -0.46}
{"gene": "CFAP68 (GeneID 64776)", "viability hit class": "no change", "caspase hit class": "no change", "viability robust z-score": -0.52, "caspase robust z-score": -0.43}
{"gene": "ANTXR1 (GeneID 84168)", "viability hit class": "no change", "caspase hit class": "no change", "viability robust z-score": -0.07, "caspase robust z-score": -0.5}
{"gene": "DQX1 (GeneID 165545)", "viability hit class": "no change", "caspase hit class": "no change", "viability robust z-score": 0.42, "caspase robust z-score": 0.29}
{"gene": "STC2 (GeneID 8614)", "viability hit class": "no change", "caspase hit class": "no change", "viability robust z-score": 0.27, "caspase robust z-score": -0.47}
{"gene": "LRRC15 (GeneID 131578)", "viability hit class": "no change", "caspase hit class": "no change", "viability robust z-score": 0.48, "caspase robust z-score": 3.82}
{"gene": "STEEP1 (GeneID 63932)", "viability hit class": "no change", "caspase hit class": "no change", "viability robust z-score": -0.03, "caspase robust z-score": 0.52}
{"gene": "SLC35H1 (GeneID 51006)", "viability hit class": "no change", "caspase hit class": "no change", "viability robust z-score": -0.04, "caspase robust z-score": -0.66}
{"gene": "ANKRD26 (GeneID 22852)", "viability hit class": "no change", "caspase hit class": "no change", "viability robust z-score": 0.05, "caspase robust z-score": -0.56}
{"gene": "LOC644006 (GeneID 644006)", "viability hit class": "no change", "caspase hit class": "no change", "viability robust z-score": -0.2, "caspase robust z-score": 0}

Taken from above:
Value of GRAP2 (GeneID 9402) in “viability robust z-score”: 0.86
Result for STC2 (GeneID 8614) in “viability robust z-score”: 0.27
Result of DQX1 (GeneID 165545) in “caspase hit class”: no change
